Binding data for 1 molecule are collected here from US20070071746A1, “C/CLP antagonists and methods of use thereof” (MEDIMMUNE, INC., priority 2005, published 2007).

Chains of the proteins cited; added tags and fusions are not shown. Lines headed by an entry give the natural chain unless they say otherwise; changes in a name come on top.
UniProt Q9BZP6: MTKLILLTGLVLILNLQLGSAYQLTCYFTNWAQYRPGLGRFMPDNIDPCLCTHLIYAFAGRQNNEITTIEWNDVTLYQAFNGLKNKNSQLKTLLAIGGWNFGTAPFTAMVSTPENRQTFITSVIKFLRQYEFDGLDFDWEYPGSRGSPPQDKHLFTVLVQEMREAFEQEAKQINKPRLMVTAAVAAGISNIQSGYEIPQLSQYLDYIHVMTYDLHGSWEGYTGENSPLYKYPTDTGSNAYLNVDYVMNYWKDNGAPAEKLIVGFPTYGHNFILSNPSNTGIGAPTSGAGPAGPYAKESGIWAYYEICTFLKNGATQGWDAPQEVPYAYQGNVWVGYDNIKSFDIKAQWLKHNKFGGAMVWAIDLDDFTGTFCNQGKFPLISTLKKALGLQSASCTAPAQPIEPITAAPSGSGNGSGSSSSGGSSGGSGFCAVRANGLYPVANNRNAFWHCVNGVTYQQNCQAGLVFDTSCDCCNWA

These are yes or no findings as the source states them, for the method shown.

The target in the experiment is human acidic mammalian chitinase (AMCase), full length (human) (UniProt Q9BZP6). Nature of the experiment: ELISA; ELISA on recombinant hAMCase; OD read at 62.5 ng/ml (down to 1000 ng/ml for +/-).

B1: Z8 (antibody, V domains shown)
VH: EVQLLESGGGLVQPGGSLRLSCAASGFTFSPYLMWWVRQAPGKGLEWVSYISSSGGYTSYADSVKGRFTISRDNSKNTLYLQMNSLRAEDTAMYYCARMYYYDSSGYPSFDYWGQGTLVTVSS
VL: QSALTQPPSASGTPGQRVTISCSGSGSNIGSNTVNWYQQLPGTAPKLLIYSSNQRPSGVSDRFSGSKSVASASLAINGLQSEDEADYYCAGWDDSLNGPVFGGGTKLTVL
Turning to B1, the binding result was “no binding”.
